# Reference: PubChem BioAssay AID493014 (National Center for Advancing Translational Sciences (NCATS), 2011)
# The list shows a part of the results. The main result of the screen is listed elsewhere. These columns were measured beside it and carry no call. Most of these compounds were active or inconclusive in the main read-out, so they are no random draw. Potencies come from curve fits of mixed quality, noted in brackets.
# Experiment: qHTS Assay to Find Inhibitors of Chronic Active B-Cell Receptor Signaling
# Settings: ABC-DLBCL IkBa-CBG/CBR reporter, luminescence ratio (green luciferase fused to IkBa over red control in TMD8 lymphoma cells), 4 h
# In short: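 TMD8 ABC-DLBCL cells carrying doxycycline-inducible green luciferase fused to IkappaBalpha plus unfused red luciferase were exposed to compounds (up to 46 uM) for 4 hrs at 37C. Activity came from the overlap-corrected green/red luminescence ratio.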
# [1] = measured here: CBR red luminescence, cell number
# [2] = measured here: IkBa-CBG green luminescence
SMILES,AC50 [1],AC50 [2]
COc1ccc(C(=O)OCC(=O)c2ccc(S(=O)(=O)N3CCCCC3)cc2)c(OC)c1,"0.731 µM [rising, full curve, poor fit]",–
Cc1ccccc1CS(=O)(=O)c1nnc([C@H](CC(C)C)NC(=O)OC(C)(C)C)o1,"11.2 µM [falling, partial curve, poor fit]","11.2 µM [rising, partial curve, poor fit]"
COc1cc(NS(=O)(=O)c2ccc(NC(=O)CSC3=NCCS3)cc2)nc(OC)n1,"22.4 µM [falling, partial curve, poor fit]",–
CCN(CC)c1ccc(/C=N/NC(=O)C(O)(c2ccccc2)c2ccccc2)o1,–,"20.6 µM [falling, single point]"
O=C(O)CC1SC(=Nc2cccc(O)c2)NC1=O (stereo not given),"20.6 µM [rising, partial curve, poor fit]",–
O=C(CNCc1ccccc1Cl)Nc1ccc2c(c1)OCCO2,"4.47 µM [falling, full curve, poor fit]",–
Cc1nn(Cc2ccccc2)c(C)c1NC(=O)CSc1nc(-c2ccccc2)nc2c1cnn2-c1ccccc1,"35.5 µM [falling, partial curve, poor fit]",–
Nc1cccc(-c2nc3ccccc3[nH]2)c1,"32.6 µM [falling, single point]",–
O=C(O)c1ccc(Cl)c(NCc2ccncc2)c1,"0.794 µM [falling, full curve, poor fit]",–
COc1ccc(C(=O)Nc2ccc(-c3ccc(C)o3)cc2)cc1S(=O)(=O)N1CCOCC1,"23.1 µM [falling, single point]",–
CCO/C(C)=N/n1c2nc3ccccc3nc2c2c(=O)n(Cc3ccccc3Cl)c(C)nc21,"15.8 µM [falling, partial curve, poor fit]",–
Cc1ccc(NC(CC(=O)c2ccccc2)c2ccc(F)cc2)cc1 (stereo not given),"12.6 µM [rising, single point]",–
COc1cc(OC)cc(C(=O)Nc2nnc(Cc3ccc(OC)c(OC)c3)s2)c1,"35.5 µM [rising, single point]",–
CCOC(=O)/C(=C\c1cccnc1)C(=O)c1cc(C(C)=O)c(Nc2ccccc2)s1,"13 µM [falling, partial curve]","32.6 µM [rising, partial curve, poor fit]"
N#C/C(=C\c1ccccc1C(F)(F)F)C(=O)Nc1ccccc1,"29.1 µM [rising, single point]",–
CC1CCCCN1Cc1c(O)ccc2c(=O)c(-c3nc4ccccc4s3)coc12 (stereo not given),"35.5 µM [falling, single point]",–
O=S(=O)(c1cccc(F)c1)N1CCN(c2nc(-c3cccnc3)nc3ccccc23)CC1,"16.4 µM [rising, single point]",–
COc1ccc(NC2CCCN(C(=O)c3ccncc3)C2)cc1 (stereo not given),"35.5 µM [falling, partial curve, poor fit]",–
O=S(=O)(NCc1ccc(F)cc1)c1ccc(-c2cnc(C3CC3)o2)cc1,"17.8 µM [falling, single point]",–
CCC(=O)c1ccc(OCC(O)Cn2nc(C)c(C(C)=O)c2C)cc1 (stereo not given),"22.4 µM [rising, partial curve, poor fit]",–

# 2 entries from above, tab-delimited.
SMILES	AC50 [1]	AC50 [2]
CCO/C(C)=N/n1c2nc3ccccc3nc2c2c(=O)n(Cc3ccccc3Cl)c(C)nc21	15.8 µM [falling, partial curve, poor fit]	–
Cc1ccc(NC(CC(=O)c2ccccc2)c2ccc(F)cc2)cc1 (stereo not given)	12.6 µM [rising, single point]	–

# Remaining list, next part:

SMILES,AC50 [1],AC50 [2]
CC(=O)c1ccc(NC(=S)NC(C)c2ccc(Cl)cc2Cl)cc1 (stereo not given),"35.5 µM [falling, single point]",–
O=[N+]([O-])c1ccc2nc(-c3ccccc3)oc2c1,"1.12 µM [rising, full curve]",–
Cc1ccccc1OCC(=O)Nc1ccc2c(c1)C(=O)N(CCC(=O)O)C2=O,"11.2 µM [falling, partial curve, poor fit]",–
Cc1cc(C)n2nc(C(=O)N3CCCC(N4CCN(c5ccccc5C)CC4)C3)cc2n1 (stereo not given),"14.1 µM [rising, partial curve, poor fit]",–
COC(=O)c1ccc(CNC(=O)Cn2cnnn2)cc1,"0.112 µM [rising, full curve, poor fit]",–
CC(=O)c1ccc(N2CCN(S(=O)(=O)c3ccc4c5c3CC(=O)N5CC(C)S4)CC2)cc1 (stereo not given),"6.31 µM [falling, single point]",–
CCOC(=O)N1CCN(C(=O)c2ccc3c(c2)N(CC)CCS3)CC1,"20.6 µM [rising, partial curve, poor fit]",–
C=CCNC(=O)c1cc(-c2ccc3c(c2)OCO3)on1,"2.24 µM [falling, partial curve]",–
CCCn1c2ccccc2c2nnc(SCc3[nH]c(=O)[nH]c3C(=O)CCCCC(=O)OCC)nc21,"8.2 µM [falling, partial curve, poor fit]",–
COc1cc(O)c2c(c1)OC(c1ccc(O)cc1)CC2=O (stereo not given),"14.1 µM [falling, single point]",–
Cc1cc(Nc2nnnn2-c2ccccc2)n(-c2ccccc2)n1,"35.5 µM [falling, single point]",–
CCN(CC)CCN(C(=O)c1ccc2c(c1)CCCC2)c1nc2ccc(F)cc2s1,"22.4 µM [falling, partial curve, poor fit]",–
CC/C(C)=N\NC(=O)CNC(=O)c1ccc(Cl)cc1Cl,–,"25.1 µM [falling, partial curve, poor fit]"
Cc1ccccc1-n1nc(C)c2cc(C(=O)N3CCN(S(=O)(=O)c4ccccc4)CC3)sc21,"0.58 µM [falling, partial curve, poor fit]",–
O=C(NNC(=O)C1CC=CCC1)c1ccccc1O (stereo not given),"7.08 µM [falling, partial curve]",–
O=C(Nc1cccc(S(=O)(=O)C(F)F)c1)c1ccc(S(=O)(=O)N2CCCC2)cc1,"2 µM [rising, partial curve, poor fit]",–
Cc1cccc(CSCCNC(=O)CCSc2ccccc2)c1,"29.1 µM [falling, single point]",–
Cc1cc(C)cc(NC(=O)COC(=O)c2ccc(CN3CCCC3=O)cc2)c1,"2.31 µM [rising, partial curve, poor fit]",–
O=C(Nc1cc(C(F)(F)F)ccc1Cl)C(Sc1ccccn1)c1ccccc1 (stereo not given),"11.2 µM [rising, partial curve]",–
COC(=O)c1cc(CSC(=N)N)ccc1OCCC(C)C,"17.8 µM [falling, single point]",–

SMILES,AC50 [1],AC50 [2]
Clc1ccc(Oc2cccc(/C=N/n3cnnc3)c2)cc1,"18.4 µM [rising, single point]","23.1 µM [falling, single point]"
CSc1ccccc1NC(=O)CN(C)C(=O)COc1cccc2cccnc12,–,"18.4 µM [falling, single point]"
C=CCN1CC(c2nc3ccccc3n2Cc2cccc3ccccc23)CC1=O (stereo not given),"35.5 µM [falling, single point]",–
O=C1C=C(O)c2c(O)cccc2C1=O,"35.5 µM [falling, single point]",–
COCCOCCOCCC(=O)NC1CC2CCC1(C)C2(C)C (stereo not given),"35.5 µM [rising, single point]",–
CN(CC(=O)Nc1ccccc1C(=O)NC1CC1)Cc1ccc(N(C)C)cc1,"11.6 µM [rising, partial curve, poor fit]","14.6 µM [falling, partial curve, poor fit]"
O=C(CSc1ccccc1)Nc1nnc(-c2ccco2)o1,"18.4 µM [falling, single point]",–
O=S(Cc1ccc(Br)cc1)Cc1nnc(SCc2c(F)cccc2Cl)n1-c1ccccc1 (stereo not given),"23.1 µM [falling, single point]",–
CNCCC=C1c2ccccc2CCc2ccccc21,"32.6 µM [falling, partial curve, poor fit]",–
CN(c1ccc(O)cc1)c1nc(-c2ccccc2)cs1,"11.6 µM [falling, partial curve, poor fit]",–
CN(Cc1ccccc1)S(=O)(=O)c1ccc(OCC(=O)Nc2cccc([N+](=O)[O-])c2)cc1,"6.51 µM [falling, single point]",–
Cc1cccc(C(=O)N[C@H](C(=O)OCc2cc(=O)n3c(n2)sc2ccccc23)C(C)C)c1,"29.1 µM [falling, single point]",–
CC(CCOC1=NS(=O)(=O)c2ccccc21)NC(=O)C(=O)Nc1ccccc1 (stereo not given),"10 µM [falling, partial curve]",–
CCCc1cc(=O)n2[nH]c(-c3ccco3)nc2n1,"23.1 µM [falling, single point]",–
C/C(N)=C(/C#N)C(=O)COC(=O)CNS(=O)(=O)c1c(F)cccc1F,"11.2 µM [rising, partial curve]",–
CC[C@]1(O)CC2CN(CCc3c([nH]c4ccccc34)[C@@](C(=O)OC)(c3cc4c(cc3OC)N(C=O)[C@H]3[C@@](O)(C(=O)OC)[C@H](OC(C)=O)[C@]5(CC)C=CCN6CC[C@]43[C@@H]65)C2)C1 (stereo not given in full),"1.58 µM [rising, full curve]","1.41 µM [falling, full curve]"
OCCN1CCN(CC(O)COc2ccc3c(c2)OCO3)CC1 (stereo not given),"11.2 µM [rising, partial curve, poor fit]",–
COCCN(C(=O)C1CCN(C(=O)c2ccccc2C)CC1)c1c(N)n(CC(C)C)c(=O)[nH]c1=O,"29.1 µM [rising, single point]",–
COc1cccc2c1OCC/C2=N\NC(=O)C(C)Oc1ccc([N+](=O)[O-])cc1 (stereo not given),–,"14.1 µM [rising, partial curve, poor fit]"
O=C(CSc1nnc2ccccn12)c1ccc(Cl)cc1,"35.5 µM [falling, single point]",–
